Our source for the binding values is patent US20030028009A1.

These are yes or no findings as the source states them, for the method shown. A result given as binding can be weak or reduced; the word gives no strength.

In this test the target is integrin αvβ3, purified from human placenta (human). Kind of test: ELISA, competition with biotinylated fibrinogen on immobilized αvβ3.

B1: LM609 grafted antibody variant S102 Fab (Fab, V domains shown)
VH: QVQLVESGGGVVQPGRSLRLSCAASGFTFSSYDMSWVRQAPGKGLEWVAKVSSGGGSTYYLDTVQGRFTISRDNSKNTLYLQMNSLRAEDTAVYYCARHNYGSFASWGQGTTVTVSS
VL: EIVLTQSPATLSLSPGERATLSCQASQSISNHLHWYQQRPGQAPRLLIRYRSQSISGIPARFSGSGSGTDFTLTISSLEPEDFAVYYCQQSGSWPHTFGGGTKVEIK
On to B1, for which the binding entry is listed as “binds”.

B2: LM609 grafted antibody combinatorial variant clone C59 Fab (Fab, V domains shown)
VH: QVQLVESGGGVVQPGRSLRLSCAASGFTFSSYDMSWVRQAPGKGLEWVAKVSSGGGSTYYPDTVQGRFTISRDNSKNTLYLQMNSLRAEDTAVYYCARHNYGSFADWGQGTTVTVSS
VL: EIVLTQSPATLSLSPGERATLSCQASQSISNFLHWYQQRPGQAPRLLIRYRSQSISGIPARFSGSGSGTDFTLTISSLEPEDFAVYYCQQSGSWPHTFGGGTKVEIK
With B2, the binding entry is given as “binds”.
